Results as given in patent US11634702B2, “Cell signaling pathway activation by local AC electric field” (ARIZONA BOARD OF REGENTS ON BEHALF OF ARIZONA STATE …, priority 2018, dated 2023).
For at least one compound, name, drawing or mass did not settle the structure.

Legend:
[1] = system: EGFR-Ras-ERK signaling pathway in MCF10A cells; test: ERK activation by EGF chemical stimulation (ERKTR reporter), control groups of the blocker tests; format: cell-based; conditions: trametinib 0.5 μM, EGF 2 ng/mL, 96-well plate
[2] = system: EGFR-Ras-ERK signaling pathway in MCF10A cells; test: ERK activation by AC EF stimulation (ERKTR reporter) in blocker tests; format: cell-based; conditions: trametinib 0.5 μM, ERKTR ratio

**Q.** With `CC(=O)Nc1cccc(-n2c(=O)n(C3CC3)c(=O)c3c(Nc4ccc(I)cc4F)n(C)c(=O)c(C)c32)c1` [trametinib] as the molecule, how does the “effect on ERK activation by EGF stimulation” value [1] read?
**A.** The value was “inhibition of the ERK activation”.

**Q.** And the “effect on ERK activation under AC EF stimulation” value [2]?
**A.** The value was “inhibition of the ERK activation”.
